Values of other authors as cited in patent EP3875080B1, “DOSAGE FORM PROVIDING PROLONGED RELEASE OF TAPENTADOL PHOSPHORIC ACID SALT” (priority 2020, dated 2021).

Settings: in vivo; cited from earlier work

CN1CC[C@]23c4c5ccc(O)c4O[C@H]2[C@@H](O)C=C[C@H]3[C@H]1C5 [Morphine]
Maximum individual Cmax ratio with 40% alcohol: 4.54 | mean increase in Cmax ratio relative to drug co-ingested with 0% alcohol: 1.0
